Measurements published in PMC10320321.
Results are given in words; binding and its absence hold for the method and conditions named. Binding seen in cells or lysates may run through a third protein. Some results given as binding are weak or reduced against the parent protein; the word gives no strength.

The chains behind the UniProt entries cited, without tags or fusion partners.
UniProt P67809: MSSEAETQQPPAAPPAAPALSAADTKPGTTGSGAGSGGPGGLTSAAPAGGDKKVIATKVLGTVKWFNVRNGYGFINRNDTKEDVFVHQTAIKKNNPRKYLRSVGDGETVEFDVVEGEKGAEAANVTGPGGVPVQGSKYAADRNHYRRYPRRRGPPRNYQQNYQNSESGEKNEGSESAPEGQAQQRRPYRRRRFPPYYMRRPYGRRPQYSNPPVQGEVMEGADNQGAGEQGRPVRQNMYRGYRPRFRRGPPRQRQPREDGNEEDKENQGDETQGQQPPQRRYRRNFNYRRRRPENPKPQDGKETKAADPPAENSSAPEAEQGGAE

Biological target: T1, Aurora kinase A (human (endogenous in MDA-MB-231)) (UniProt O14965)
T1 sequence: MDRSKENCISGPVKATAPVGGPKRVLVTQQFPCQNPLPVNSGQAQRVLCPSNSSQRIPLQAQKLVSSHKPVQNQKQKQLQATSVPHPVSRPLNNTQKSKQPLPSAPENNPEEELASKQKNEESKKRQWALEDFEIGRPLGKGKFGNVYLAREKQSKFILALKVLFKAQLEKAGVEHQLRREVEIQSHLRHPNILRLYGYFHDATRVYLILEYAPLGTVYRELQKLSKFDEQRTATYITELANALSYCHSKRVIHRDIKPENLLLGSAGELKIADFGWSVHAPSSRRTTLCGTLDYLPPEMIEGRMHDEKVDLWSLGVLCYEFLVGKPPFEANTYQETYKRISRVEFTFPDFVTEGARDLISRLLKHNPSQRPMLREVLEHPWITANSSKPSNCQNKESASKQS
Experiment: co-IP; endogenous proteins in MDA-MB-231 cell lysate (500-1000 ug protein), overnight at 4 °C with antibodies combined with Protein A-G agarose, detected by Western blot

binding	Substance
binds	splicing factor YBX1 (from UniProt P67809 1-324)
binds	splicing factor hnRNPK (from UniProt P61978 1-463)
